Our source for the binding values is publication PMC11522549.

By UniProt entry, the sequences of proteins in these tests, tags left out. Where a name states a change or a piece, a line headed by the entry shows the natural chain unless it says otherwise.
UniProt O75376: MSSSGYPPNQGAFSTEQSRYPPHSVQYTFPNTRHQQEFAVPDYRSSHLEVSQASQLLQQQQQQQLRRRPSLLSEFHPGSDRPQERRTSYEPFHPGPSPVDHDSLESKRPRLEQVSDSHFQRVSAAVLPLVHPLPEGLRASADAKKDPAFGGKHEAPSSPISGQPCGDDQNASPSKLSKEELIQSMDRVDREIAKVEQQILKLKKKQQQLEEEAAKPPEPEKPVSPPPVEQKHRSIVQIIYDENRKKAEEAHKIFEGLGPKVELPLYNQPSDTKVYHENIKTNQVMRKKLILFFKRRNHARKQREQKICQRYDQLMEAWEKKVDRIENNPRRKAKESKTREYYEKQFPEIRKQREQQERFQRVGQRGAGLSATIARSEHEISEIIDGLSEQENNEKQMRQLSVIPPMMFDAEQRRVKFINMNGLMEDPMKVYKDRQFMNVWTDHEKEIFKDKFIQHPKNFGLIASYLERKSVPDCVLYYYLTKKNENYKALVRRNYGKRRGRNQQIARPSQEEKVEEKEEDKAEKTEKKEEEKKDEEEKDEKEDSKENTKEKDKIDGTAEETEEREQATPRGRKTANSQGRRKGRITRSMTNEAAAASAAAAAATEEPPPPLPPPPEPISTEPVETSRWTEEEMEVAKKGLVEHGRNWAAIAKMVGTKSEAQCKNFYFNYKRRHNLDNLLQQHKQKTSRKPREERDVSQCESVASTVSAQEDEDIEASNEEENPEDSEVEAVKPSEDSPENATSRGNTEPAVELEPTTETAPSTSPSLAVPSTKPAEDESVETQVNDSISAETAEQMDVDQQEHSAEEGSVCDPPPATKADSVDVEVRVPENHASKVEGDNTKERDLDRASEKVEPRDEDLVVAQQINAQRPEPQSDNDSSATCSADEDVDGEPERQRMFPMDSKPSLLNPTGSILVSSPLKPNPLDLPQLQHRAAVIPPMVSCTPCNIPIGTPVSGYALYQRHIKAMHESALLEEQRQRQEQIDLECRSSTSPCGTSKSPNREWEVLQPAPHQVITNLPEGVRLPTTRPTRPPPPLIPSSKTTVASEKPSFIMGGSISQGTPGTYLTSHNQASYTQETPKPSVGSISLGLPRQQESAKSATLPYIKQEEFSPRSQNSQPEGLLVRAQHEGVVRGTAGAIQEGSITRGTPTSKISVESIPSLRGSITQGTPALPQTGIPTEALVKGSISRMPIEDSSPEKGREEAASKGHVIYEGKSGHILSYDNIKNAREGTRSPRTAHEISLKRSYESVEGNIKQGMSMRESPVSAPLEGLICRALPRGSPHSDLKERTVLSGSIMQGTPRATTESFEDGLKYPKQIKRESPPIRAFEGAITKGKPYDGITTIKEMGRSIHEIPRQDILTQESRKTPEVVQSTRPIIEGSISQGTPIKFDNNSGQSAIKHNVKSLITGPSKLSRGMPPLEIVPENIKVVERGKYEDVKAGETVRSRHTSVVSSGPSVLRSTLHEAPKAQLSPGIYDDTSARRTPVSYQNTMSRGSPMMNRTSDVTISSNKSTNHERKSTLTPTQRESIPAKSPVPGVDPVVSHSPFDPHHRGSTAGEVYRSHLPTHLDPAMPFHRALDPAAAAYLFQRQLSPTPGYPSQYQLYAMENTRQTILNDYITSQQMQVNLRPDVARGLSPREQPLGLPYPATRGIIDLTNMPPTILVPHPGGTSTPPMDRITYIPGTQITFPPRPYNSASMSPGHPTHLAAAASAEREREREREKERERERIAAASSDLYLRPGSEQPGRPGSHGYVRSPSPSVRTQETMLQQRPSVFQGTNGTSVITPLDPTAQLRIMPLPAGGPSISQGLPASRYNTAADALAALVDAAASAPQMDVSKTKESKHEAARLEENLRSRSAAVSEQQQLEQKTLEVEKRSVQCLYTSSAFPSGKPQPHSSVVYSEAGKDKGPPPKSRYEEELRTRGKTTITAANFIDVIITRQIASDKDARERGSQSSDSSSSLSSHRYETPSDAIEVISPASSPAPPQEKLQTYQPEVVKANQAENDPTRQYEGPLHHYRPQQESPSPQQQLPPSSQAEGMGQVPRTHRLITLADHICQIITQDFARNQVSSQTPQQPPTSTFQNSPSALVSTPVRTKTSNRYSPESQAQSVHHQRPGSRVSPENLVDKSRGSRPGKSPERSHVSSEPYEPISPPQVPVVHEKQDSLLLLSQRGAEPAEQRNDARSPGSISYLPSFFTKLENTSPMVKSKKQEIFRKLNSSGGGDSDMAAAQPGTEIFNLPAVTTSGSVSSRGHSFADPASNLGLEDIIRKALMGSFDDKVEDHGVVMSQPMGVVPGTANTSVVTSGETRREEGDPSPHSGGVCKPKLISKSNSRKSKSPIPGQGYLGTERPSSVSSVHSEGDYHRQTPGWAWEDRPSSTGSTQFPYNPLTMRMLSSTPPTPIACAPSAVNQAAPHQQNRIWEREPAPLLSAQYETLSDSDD

These are yes or no findings as the source states them, for the method shown. In cells and extracts the contact can be indirect. Some binding calls cover weakened binding; strength is not graded here.

In the assay the target is T1, Nuclear receptor subfamily 1 group D member 1 (Nr1d1) (human (endogenous in primary PASMCs)) (UniProt P20393).
T1 sequence: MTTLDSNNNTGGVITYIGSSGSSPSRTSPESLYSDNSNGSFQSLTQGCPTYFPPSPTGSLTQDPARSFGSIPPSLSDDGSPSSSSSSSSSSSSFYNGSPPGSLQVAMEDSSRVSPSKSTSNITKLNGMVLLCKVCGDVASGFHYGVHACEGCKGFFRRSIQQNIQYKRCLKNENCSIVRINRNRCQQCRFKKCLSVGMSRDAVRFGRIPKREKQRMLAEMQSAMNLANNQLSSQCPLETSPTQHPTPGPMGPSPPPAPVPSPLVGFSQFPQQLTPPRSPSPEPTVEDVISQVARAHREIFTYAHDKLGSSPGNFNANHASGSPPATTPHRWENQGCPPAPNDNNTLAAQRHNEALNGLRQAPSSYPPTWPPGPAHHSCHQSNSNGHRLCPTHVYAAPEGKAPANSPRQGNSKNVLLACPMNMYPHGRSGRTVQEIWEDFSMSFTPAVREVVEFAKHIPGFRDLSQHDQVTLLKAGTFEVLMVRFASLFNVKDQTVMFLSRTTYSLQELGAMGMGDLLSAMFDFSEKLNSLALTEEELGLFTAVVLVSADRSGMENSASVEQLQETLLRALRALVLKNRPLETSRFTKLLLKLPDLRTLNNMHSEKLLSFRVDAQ
Put plainly: co-IP; Co-IP of Nr1d1 in primary human PASMCs; details in the Supplemental Methods (not shown).

As for “NCoR1-HDAC3 complex (from UniProt O75376 1-2440; O15379 1-428)”, the binding entry is reported as “binds”.
